In the supplement of paper PMC10849652:
Some of the results follow.

The chains behind the UniProt entries cited, without tags or fusion partners. Where a name states a change or a piece, a line headed by the entry shows the natural chain unless it says otherwise.
UniProt Q9P2C4: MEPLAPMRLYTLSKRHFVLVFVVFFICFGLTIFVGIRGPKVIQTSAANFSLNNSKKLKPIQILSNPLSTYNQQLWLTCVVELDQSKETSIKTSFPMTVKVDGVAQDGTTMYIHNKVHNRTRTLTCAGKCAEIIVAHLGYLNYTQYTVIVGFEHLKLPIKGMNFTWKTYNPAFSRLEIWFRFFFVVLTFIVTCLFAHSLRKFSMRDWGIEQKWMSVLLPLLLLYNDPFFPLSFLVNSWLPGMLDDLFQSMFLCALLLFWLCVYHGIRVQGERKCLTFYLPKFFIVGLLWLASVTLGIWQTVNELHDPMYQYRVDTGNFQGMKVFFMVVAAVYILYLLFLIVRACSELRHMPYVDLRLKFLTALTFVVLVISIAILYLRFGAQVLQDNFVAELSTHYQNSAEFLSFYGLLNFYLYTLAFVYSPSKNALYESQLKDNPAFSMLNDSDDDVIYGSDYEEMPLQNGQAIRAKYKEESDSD
UniProt P55061, whole entry, looked up: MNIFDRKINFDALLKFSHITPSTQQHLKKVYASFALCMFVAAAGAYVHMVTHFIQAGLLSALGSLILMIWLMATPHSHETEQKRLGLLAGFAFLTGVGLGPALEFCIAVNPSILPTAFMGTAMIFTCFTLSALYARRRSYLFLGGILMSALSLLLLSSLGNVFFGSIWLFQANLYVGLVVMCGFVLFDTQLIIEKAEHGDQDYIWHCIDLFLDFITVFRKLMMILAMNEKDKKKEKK
UniProt Q86UE8, whole entry, looked up: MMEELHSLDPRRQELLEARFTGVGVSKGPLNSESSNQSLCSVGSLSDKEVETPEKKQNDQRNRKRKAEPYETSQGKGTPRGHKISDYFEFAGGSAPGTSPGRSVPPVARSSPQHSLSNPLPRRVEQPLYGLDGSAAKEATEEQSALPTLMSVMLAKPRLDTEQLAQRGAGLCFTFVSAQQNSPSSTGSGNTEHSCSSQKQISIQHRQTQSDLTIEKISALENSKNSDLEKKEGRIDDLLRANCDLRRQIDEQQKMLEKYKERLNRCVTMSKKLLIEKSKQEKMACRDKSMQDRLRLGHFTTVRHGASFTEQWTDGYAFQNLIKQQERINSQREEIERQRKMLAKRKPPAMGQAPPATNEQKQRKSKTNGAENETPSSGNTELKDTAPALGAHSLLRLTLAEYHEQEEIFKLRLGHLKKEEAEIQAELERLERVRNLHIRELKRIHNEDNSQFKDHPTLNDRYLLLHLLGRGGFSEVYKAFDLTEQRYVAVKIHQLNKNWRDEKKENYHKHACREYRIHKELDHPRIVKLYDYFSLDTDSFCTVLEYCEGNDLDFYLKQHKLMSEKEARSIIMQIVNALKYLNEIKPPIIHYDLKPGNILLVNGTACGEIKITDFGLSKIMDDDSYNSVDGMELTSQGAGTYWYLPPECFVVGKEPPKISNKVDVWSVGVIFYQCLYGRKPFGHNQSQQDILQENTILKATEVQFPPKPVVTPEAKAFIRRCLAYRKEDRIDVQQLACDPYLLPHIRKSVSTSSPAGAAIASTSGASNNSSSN
UniProt Q8NI27: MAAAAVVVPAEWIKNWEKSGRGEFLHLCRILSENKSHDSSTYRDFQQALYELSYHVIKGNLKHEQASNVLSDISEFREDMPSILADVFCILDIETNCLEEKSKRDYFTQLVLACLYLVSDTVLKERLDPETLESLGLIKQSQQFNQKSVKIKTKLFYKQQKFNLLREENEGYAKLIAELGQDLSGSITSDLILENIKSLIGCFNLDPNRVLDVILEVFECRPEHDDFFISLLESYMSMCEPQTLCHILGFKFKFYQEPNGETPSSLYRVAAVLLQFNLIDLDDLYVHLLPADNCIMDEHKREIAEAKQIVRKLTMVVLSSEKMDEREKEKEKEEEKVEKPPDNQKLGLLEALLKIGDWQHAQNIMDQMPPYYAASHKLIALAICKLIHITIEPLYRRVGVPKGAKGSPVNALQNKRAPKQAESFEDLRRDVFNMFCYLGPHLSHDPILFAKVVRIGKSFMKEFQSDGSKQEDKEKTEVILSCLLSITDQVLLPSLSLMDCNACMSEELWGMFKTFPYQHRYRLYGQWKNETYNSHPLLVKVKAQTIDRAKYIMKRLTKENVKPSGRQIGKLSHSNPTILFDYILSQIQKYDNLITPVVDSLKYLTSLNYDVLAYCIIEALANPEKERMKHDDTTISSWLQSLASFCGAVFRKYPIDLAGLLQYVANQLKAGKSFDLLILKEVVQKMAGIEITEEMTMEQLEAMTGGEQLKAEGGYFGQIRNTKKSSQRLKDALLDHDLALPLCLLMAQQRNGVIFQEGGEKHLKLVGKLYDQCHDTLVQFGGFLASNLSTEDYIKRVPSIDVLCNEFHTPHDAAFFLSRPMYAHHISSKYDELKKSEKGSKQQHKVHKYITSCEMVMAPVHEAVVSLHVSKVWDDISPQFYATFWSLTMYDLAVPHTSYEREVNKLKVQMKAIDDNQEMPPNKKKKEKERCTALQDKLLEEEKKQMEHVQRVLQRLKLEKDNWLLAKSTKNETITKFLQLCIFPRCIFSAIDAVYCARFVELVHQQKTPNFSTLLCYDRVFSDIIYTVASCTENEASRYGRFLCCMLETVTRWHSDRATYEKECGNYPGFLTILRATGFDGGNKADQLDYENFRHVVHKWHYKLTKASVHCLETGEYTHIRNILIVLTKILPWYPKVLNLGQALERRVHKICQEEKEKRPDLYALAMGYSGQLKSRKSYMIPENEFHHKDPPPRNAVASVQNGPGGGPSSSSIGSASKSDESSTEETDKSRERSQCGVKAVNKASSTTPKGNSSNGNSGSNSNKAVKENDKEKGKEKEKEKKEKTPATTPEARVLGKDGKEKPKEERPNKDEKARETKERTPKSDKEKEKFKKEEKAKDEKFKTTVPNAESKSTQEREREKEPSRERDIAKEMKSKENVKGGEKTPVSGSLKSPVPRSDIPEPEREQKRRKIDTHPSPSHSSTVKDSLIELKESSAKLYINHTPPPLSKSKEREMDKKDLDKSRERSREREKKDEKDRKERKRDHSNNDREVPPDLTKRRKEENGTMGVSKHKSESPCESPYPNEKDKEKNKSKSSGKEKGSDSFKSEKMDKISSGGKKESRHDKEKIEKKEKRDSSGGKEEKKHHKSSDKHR
UniProt Q5TEJ8: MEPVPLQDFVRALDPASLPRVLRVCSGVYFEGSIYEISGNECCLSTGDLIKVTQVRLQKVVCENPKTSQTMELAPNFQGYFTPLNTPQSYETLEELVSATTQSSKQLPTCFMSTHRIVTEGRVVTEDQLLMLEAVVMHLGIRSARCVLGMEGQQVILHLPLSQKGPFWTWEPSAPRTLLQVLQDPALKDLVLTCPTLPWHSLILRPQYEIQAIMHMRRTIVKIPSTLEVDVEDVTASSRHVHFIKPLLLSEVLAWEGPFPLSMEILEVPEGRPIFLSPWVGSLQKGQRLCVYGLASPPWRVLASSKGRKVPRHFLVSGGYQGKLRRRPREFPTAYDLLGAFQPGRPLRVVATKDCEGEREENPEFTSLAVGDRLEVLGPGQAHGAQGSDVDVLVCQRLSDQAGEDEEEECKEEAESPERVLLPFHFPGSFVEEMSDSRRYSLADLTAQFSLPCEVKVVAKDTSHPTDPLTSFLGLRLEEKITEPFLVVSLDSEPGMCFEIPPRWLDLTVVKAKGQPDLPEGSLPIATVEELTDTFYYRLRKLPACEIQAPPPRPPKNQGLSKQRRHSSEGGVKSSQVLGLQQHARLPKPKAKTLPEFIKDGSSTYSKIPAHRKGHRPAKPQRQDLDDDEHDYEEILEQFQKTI
UniProt Q969X1: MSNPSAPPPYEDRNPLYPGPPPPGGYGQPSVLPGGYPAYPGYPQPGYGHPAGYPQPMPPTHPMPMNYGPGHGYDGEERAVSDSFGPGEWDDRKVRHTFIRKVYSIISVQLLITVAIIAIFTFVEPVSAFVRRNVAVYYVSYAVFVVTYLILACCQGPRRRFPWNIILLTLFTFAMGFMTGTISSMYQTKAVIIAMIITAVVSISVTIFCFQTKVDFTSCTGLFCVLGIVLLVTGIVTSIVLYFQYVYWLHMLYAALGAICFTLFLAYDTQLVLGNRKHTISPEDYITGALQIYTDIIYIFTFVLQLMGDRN
UniProt Q8IYQ7: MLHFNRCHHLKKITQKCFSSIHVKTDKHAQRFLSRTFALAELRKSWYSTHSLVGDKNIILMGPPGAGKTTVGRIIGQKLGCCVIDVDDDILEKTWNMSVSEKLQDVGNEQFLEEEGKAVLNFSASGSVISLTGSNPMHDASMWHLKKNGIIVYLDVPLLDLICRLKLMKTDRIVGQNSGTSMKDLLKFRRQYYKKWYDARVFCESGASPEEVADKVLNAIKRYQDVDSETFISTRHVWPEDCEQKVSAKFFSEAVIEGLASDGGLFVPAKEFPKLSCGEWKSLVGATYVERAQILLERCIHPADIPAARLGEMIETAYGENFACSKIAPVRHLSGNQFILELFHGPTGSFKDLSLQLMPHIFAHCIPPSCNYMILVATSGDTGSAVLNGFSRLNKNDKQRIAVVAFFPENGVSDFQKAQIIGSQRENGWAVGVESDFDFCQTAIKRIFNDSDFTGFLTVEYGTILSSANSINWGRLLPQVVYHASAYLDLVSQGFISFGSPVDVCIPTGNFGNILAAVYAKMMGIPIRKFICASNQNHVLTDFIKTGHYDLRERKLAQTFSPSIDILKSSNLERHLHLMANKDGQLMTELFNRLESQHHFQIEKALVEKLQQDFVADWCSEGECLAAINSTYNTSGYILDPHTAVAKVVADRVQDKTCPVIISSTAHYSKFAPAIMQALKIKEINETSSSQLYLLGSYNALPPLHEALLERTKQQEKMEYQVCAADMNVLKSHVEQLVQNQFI
UniProt P01033: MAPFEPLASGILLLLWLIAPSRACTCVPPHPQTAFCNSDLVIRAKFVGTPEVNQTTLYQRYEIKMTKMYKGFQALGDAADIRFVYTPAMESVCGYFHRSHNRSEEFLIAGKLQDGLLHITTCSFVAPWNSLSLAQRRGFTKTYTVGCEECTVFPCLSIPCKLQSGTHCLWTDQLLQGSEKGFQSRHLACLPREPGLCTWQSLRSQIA
UniProt Q96DC7: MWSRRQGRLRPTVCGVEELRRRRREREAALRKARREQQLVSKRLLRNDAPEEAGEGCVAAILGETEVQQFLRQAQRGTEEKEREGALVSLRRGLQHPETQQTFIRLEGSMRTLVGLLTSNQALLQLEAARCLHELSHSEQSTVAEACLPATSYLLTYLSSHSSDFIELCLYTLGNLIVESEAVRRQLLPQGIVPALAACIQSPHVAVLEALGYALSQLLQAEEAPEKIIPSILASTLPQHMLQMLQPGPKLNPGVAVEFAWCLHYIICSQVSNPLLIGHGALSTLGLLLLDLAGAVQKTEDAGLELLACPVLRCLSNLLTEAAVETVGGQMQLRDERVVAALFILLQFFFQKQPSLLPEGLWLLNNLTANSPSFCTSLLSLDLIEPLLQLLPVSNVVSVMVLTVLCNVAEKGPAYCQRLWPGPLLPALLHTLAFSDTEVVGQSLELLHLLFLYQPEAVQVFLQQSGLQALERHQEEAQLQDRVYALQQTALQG
UniProt Q53S58: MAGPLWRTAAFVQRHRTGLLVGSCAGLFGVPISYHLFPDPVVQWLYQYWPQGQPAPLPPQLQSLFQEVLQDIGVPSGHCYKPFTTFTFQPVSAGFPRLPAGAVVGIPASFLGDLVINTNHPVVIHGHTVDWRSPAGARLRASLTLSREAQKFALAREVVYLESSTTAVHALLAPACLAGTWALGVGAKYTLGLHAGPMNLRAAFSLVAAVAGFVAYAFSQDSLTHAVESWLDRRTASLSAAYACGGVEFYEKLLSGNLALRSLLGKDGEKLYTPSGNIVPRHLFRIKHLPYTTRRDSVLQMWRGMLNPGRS
UniProt Q8NDZ6: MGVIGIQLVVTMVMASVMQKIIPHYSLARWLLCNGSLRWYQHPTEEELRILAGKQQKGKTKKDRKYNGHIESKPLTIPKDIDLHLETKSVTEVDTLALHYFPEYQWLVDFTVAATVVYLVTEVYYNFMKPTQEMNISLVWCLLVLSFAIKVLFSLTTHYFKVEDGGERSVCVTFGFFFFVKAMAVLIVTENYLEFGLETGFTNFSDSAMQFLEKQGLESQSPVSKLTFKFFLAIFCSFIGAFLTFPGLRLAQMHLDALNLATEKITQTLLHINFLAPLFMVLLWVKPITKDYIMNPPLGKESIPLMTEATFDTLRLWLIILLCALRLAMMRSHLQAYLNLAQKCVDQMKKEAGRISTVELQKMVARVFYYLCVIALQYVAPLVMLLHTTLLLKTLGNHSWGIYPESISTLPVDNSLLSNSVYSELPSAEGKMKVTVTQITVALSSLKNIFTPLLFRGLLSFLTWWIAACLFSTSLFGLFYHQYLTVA
UniProt O60220: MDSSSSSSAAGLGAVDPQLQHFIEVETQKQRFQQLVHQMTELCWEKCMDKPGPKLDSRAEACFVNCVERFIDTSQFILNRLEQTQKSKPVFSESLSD
UniProt Q13445: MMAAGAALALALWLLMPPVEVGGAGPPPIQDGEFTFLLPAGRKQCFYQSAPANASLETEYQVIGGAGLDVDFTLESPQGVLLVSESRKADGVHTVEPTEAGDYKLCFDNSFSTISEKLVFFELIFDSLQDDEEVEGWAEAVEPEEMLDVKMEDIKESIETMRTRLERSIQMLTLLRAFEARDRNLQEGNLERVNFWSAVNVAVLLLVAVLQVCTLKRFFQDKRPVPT

Tests used:
Assay in all cases: log2 fold change, soluble protein after heating vs DMSO (PISA); higher = thermal stabilisation; K562 lysate, 10 uM; active = over 0.2 and 3.5 SD of the protein, either way, in both replicates (recomputed)
[1] = compound: C1=CC=C(C=C1)[C@H](COC2=CC3=C(C=C2)NC(=O)N3)NC(=O)C4=CC=CN(C4=O)CC5=CC(=C(C=C5)F)F
In short: (§1)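 Soluble protein was defined as the supernatant remaining after 21,000xg for 90 min, following pooling of heated aliquots and adjustment to 0.5% NP-40 at 4°C. Before that, crude K562 extract at 1 mg/mL protein in PBS pH 7.4 with 1 mM MgCl2 was treated with 10 μM compound for 30 min and heated for 3 min across 48°C-58°C. Quantification used TMTpro 16plex LC-MS/MS with channel sums equalised, and values are log-two fold changes in thermal stability relative to solvent controls from duplicates.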

[2] = compound: CC1=C(SC2=C1C(=N[C@H](C3=NN=C(N32)C)CC(=O)N)C4=CC=C(C=C4)Cl)C
In short: as §1

[3] = compound: CC1=C2C(=CC=C1)N=C(N(C2=O)C3=CC=CC=C3C)CN4C=NC5=C(N=CN=C54)N
In short: as §1

[4] = compound: Cc1sc2c(c1C)C(c1ccc(Cl)cc1)=N[C@@H](CC(=O)OC(C)(C)C)c1nnc(C)n1-2
In short: as §1

[5] = compound: c1ccc([C@@H]2C[C@H]2NC2CCNCC2)cc1
In short: as §1

Measured: log2 fold change

TMEM181 (UniProt Q9P2C4)
inactive: [1] 0.062 | [2] -0.05 | [3] 0.179 | [4] -0.049 | [5] -0.009

THADA (UniProt Q6YHU6)
inactive: [1] -0.028 | [2] -0.016 | [3] 0.069 | [4] 0.007 | [5] 0.028

THOC3 (UniProt Q96J01)
inactive: [1] -0.01 | [2] 0.027 | [3] -0.008 | [4] 0.049 | [5] 0.028

TJP1 (UniProt G3V1L9)
inactive: [1] -0.025 | [2] -0.014 | [3] 0.127 | [4] 0.009 | [5] -0.007

TMBIM6 isoform 2 (UniProt P55061)
inactive: [1] -0.039 | [2] 0.012 | [3] 0.105 | [4] 0.026 | [5] 0.012

TMA16 (UniProt Q96EY4)
inactive: [1] 0.008 | [2] 0.091 | [3] -0.015 | [4] 0.052 | [5] 0

TLE3 isoform 4 (UniProt Q04726)
inactive: [1] 0.01 | [2] -0.033 | [3] 0.024 | [4] 0.025 | [5] 0.007

TIMM10 (UniProt P62072)
inactive: [1] 0.07 | [2] -0.025 | [3] -0.048 | [4] 0.057 | [5] 0.032

THOP1 (UniProt P52888)
inactive: [1] -0.005 | [2] 0.024 | [3] -0.002 | [4] -0.007 | [5] -0.027

TIMM13 (UniProt Q9Y5L4)
inactive: [1] 0.049 | [2] -0.044 | [3] -0.012 | [4] -0.045 | [5] 0.072

TMEM126B (UniProt Q8IUX1)
inactive: [1] 0.063 | [2] 0.005 | [3] 0.058 | [4] 0.017 | [5] -0.033

Pulled one by one from the entries so far (2):
THOP1 (UniProt P52888)
inactive: [1] -0.005 | [2] 0.024 | [3] -0.002 | [4] -0.007 | [5] -0.027

TJP1 (UniProt G3V1L9)
inactive: [1] -0.025 | [2] -0.014 | [3] 0.127 | [4] 0.009 | [5] -0.007

Additional entries

TGFBR3 (UniProt Q03167)
inactive: [1] -0.067 | [2] 0.066 | [3] 0.083 | [4] -0.026 | [5] -0.015

TLK2 isoform 2 (UniProt Q86UE8)
inactive: [1] 0.014 | [2] -0.027 | [3] 0.033 | [4] -0.015 | [5] -0.075

THEM4 (UniProt Q5T1C6)
inactive: [1] 0.058 | [2] 0.039 | [3] 0.059 | [4] -0.079 | [5] -0.063

TMEM179B (UniProt Q7Z7N9)
inactive: [1] 0.034 | [2] -0.086 | [3] -0.137 | [4] -0.005 | [5] -0.127

TMED5 (UniProt Q9Y3A6)
inactive: [1] -0.013 | [2] -0.052 | [3] 0.027 | [4] -0.019 | [5] 0.053

TJAP1 (UniProt Q5JTD0)
inactive: [1] 0.046 | [2] 0.008 | [3] 0.036 | [4] -0.006 | [5] -0.01

TK1 (UniProt K7ERV3)
inactive: [1] -0.044 | [2] 0.007 | [3] -0.017 | [4] -0.002 | [5] -0.037

TIMM9 (UniProt Q9Y5J7)
inactive: [1] -0.002 | [2] -0.163 | [3] -0.046 | [4] -0.033 | [5] 0.118

TMEM185B (UniProt Q9H7F4)
inactive: [1] 0.014 | [2] 0.007 | [3] -0.017 | [4] -0.06 | [5] 0.07

THOC6 (UniProt Q86W42)
inactive: [1] 0.037 | [2] -0.015 | [3] 0.033 | [4] 0.015 | [5] -0.003

THOC2 (UniProt Q8NI27)
inactive: [1] 0.02 | [2] 0 | [3] 0.004 | [4] 0.017 | [5] 0.004

TIPRL (UniProt O75663)
inactive: [1] -0.026 | [2] 0.016 | [3] -0.02 | [4] 0.013 | [5] 0.003

TMEM123 (UniProt Q8N131)
inactive: [1] 0.125 | [2] -0.033 | [3] -0.021 | [4] -0.01 | [5] 0.079

THUMPD2 (UniProt Q9BTF0)
inactive: [1] 0.048 | [2] -0.004 | [3] -0.023 | [4] -0.059 | [5] -0.004

TJP1 isoform 2 (UniProt Q07157)
inactive: [1] 0.048 | [2] 0.02 | [3] 0 | [4] 0.061 | [5] -0.009

TMEM165 (UniProt Q9HC07)
inactive: [1] 0.01 | [2] 0.014 | [3] 0.014 | [4] -0.014 | [5] -0.027

THRAP3 (UniProt Q9Y2W1)
inactive: [1] -0.001 | [2] 0.039 | [3] 0.011 | [4] -0.05 | [5] -0.051

TMEM167B (UniProt Q9NRX6)
inactive: [1] 0.021 | [2] -0.032 | [3] 0.036 | [5] -0.187

TKT isoform 2 (UniProt P29401)
inactive: [1] 0.021 | [2] 0.004 | [3] 0 | [4] -0.023 | [5] 0.008

THEMIS2 (UniProt Q5TEJ8)
inactive: [1] 0.046 | [2] 0 | [3] 0.019 | [4] 0.052 | [5] -0.054

TMBIM1 (UniProt Q969X1)
inactive: [1] 0.063 | [2] 0.037 | [3] 0.031 | [4] -0.22 | [5] -0.015

THTPA (UniProt Q9BU02)
inactive: [1] -0.032 | [2] -0.037 | [3] 0.055 | [4] 0.066 | [5] 0.001

TMEM104 (UniProt Q8NE00)
inactive: [1] 0.081 | [2] 0.031 | [3] -0.194 | [5] 0.187

TLE4 isoform 3 (UniProt Q04727)
inactive: [1] 0.011 | [2] -0.012 | [3] -0.031 | [4] 0.007 | [5] -0.05

TM9SF4 (UniProt Q92544)
inactive: [1] -0.01 | [2] -0.012 | [3] 0.016 | [4] -0.009 | [5] 0.007

TLR9 isoform 4 (UniProt Q9NR96)
inactive: [1] -0.004 | [2] 0.097 | [3] -0.079 | [4] 0.077 | [5] -0.15

TKFC (UniProt Q3LXA3)
inactive: [1] 0.045 | [2] 0.027 | [3] -0.003 | [4] -0.017 | [5] -0.004

TMEM164 (UniProt Q5U3C3)
inactive: [1] -0.13 | [2] -0.155 | [3] 0.111 | [4] -0.217 | [5] -0.543

TIMM21 (UniProt Q9BVV7)
inactive: [1] 0.034 | [2] 0.01 | [3] -0.011 | [4] 0.015 | [5] 0.008

THNSL1 (UniProt Q8IYQ7)
inactive: [1] 0.045 | [2] 0.045 | [3] 0.047 | [4] -0.005 | [5] 0.002

TLCD4 (UniProt Q96MV1)
inactive: [1] -0.015 | [2] -0.031 | [3] 0.031 | [4] -0.01 | [5] -0.086

TIMP1 (UniProt P01033)
inactive: [1] 0.077 | [2] -0.003 | [3] -0.014 | [4] -0.023 | [5] -0.046

TMCO6 isoform 2 (UniProt Q96DC7)
inactive: [1] -0.036 | [2] 0.068 | [3] -0.034 | [4] 0.119 | [5] 0.13

TIMM22 (UniProt Q9Y584)
inactive: [1] 0.049 | [2] 0.055 | [3] 0.128 | [4] 0.118 | [5] 0.002

TMEM177 (UniProt Q53S58)
inactive: [1] 0.002 | [2] -0.009 | [3] 0.015 | [5] 0.068

TLN2 (UniProt Q9Y4G6)
inactive: [1] 0.028 | [2] 0 | [3] 0.004 | [4] 0.021 | [5] -0.032

TMEM161B (UniProt Q8NDZ6)
inactive: [1] -0.07 | [2] -0.052 | [3] -0.076 | [5] -0.025

TIMM8A (UniProt O60220)
inactive: [1] 0.106 | [2] -0.044 | [3] -0.012 | [4] -0.04 | [5] 0.085

TMEM160 (UniProt Q9NX00)
inactive: [1] -0.031 | [2] -0.015 | [3] 0.12 | [4] 0.057 | [5] 0.032

TMED1 (UniProt Q13445)
inactive: [1] -0.014 | [2] -0.011 | [3] 0.036 | [4] -0.143 | [5] 0.018

TLCD1 (UniProt Q96CP7)
inactive: [1] 0.032 | [2] 0.134 | [3] 0.011 | [4] -0.068 | [5] 0.068

TIMM8B (UniProt Q9Y5J9)
inactive: [1] 0.015 | [2] 0.064 | [3] -0.025 | [4] 0.019 | [5] 0.162
